This passage reports IC50 results from ChEMBL document CHEMBL4732114, “Design and structural optimization of novel 2H-benzo[h]chromene derivatives that target AcrB and reverse bacterial multidrug resistance” (Eur J Med Chem, 2021).

The test system of the assay is HepG2. The experiment in a line: Cytotoxicity against human HepG2 cells assessed as growth inhibition. In kind it is ADME, cell-based. The procedure, abridged: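 HepG2 cells exposed to compound; viability or inhibition rate measured, with paclitaxel as positive control.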

Structures are written as SMILES. pIC50: −log10 of the molar value.

By pIC50 is commonly meant the negative decadic logarithm of the IC50, by convention in mol/L. In the case of `CC(=O)O[C@H]1C(=O)[C@@]2(C)[C@H]([C@H](OC(=O)c3ccccc3)[C@]3(O)C[C@H](OC(=O)[C@H](O)[C@@H](NC(=O)c4ccccc4)c4ccccc4)C(C)=C1C3(C)C)[C@]1(OC(C)=O)CO[C@@H]1C[C@@H]2O` [PACLITAXEL], the negative-log IC50 (pIC50) is 7.90.
